The results in this text go back to the supplement of paper PMC8256030.

Several values for one entry are separate records, joined by “and”; a condition that tells them apart may be missing. Equal entries are not always repeated. Structures can show the parent of a compound that is named as a salt. The list shows a part of the results. This data set is noisy: repeats of one test often differ as much as different tests do.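 HEK293T cells were given each compound shortly before transfection with a reporter in which red mCherry is followed by the SARS-CoV-2 frameshift element and then GFP in the −1 frame, so GFP appears only after frameshifting.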

Test [1] relates to SARS-CoV-2 -1 PRF reporter mCherry-FSE-GFP(-1). In words: mCherry (red) intensity as percent of control; higher = higher upstream reporter expression. The note with it: 10 µM; 24 h; HEK293T.
The test system is the same in test [2]. In words: percent effect, decrease of GFP/mCherry ratio (-1 PRF reporter) relative to controls; higher = stronger frameshift inhibition. The note with it: 10 µM; 24 h; HEK293T.

In the case of `COc1ccc(CN(CCN(C)C)c2ccccn2)cc1` [mepyramine], the mCherry in test [1] was 88.5% and 86.9%. For the same compound, in test [2], the percent effect was -3.56% and -1.7%.
In turn, `CC(C)(C)NC[C@H](O)COc1nsnc1N1CCOCC1` [(S)-Timolol maleate] yielded a mCherry in test [1] of 94.6%. Besides, in test [2], the percent effect was 2.92%.
For the compound `O=C1CCc2cc(OCCCCc3nnnn3C3CCCCC3)ccc2N1` [cilostazol], the mCherry in test [1] was 109%. The percent effect in test [2] was found to be 0.7%.
In test [1], `O=C(O)Cn1c(=O)n(Cc2ccc(Br)cc2F)c(=O)c2ccc(Cl)cc21` [zenarestat] showed a mCherry of 95.2%. For the same compound, the percent effect in test [2] was -6.66%.
In test [1], `C[C@H]1CN(C[C@H](Cc2ccccc2)C(=O)NCC(=O)O)CC[C@@]1(C)c1cccc(O)c1` [Entereg] returned a mCherry of 114%. For the same compound, the percent effect in test [2] was -6.43%.
For `CN(N=O)C(=O)N[C@@H]1[C@@H](O)[C@H](O)[C@@H](CO)O[C@@H]1O` [streptozocin], in that order: 104% and -0.304%.
For `CCCC(=O)O[C@]1(C(=O)CO)CC[C@H]2[C@@H]3CCC4=CC(=O)CC[C@]4(C)[C@H]3[C@@H](O)C[C@@]21C`, in that order: 107% and -4.76%.
For `CC(O)C(N)C(=O)O` (stereo not given), in that order: 86.7% and -12.8%.
`CN(C)CCOC(C)(c1ccccc1)c1ccccn1` (stereo not given) registered a mCherry in test [1] of 134%. The percent effect in test [2] was -4.6%.
As for `CCc1nc(N)nc(N)c1-c1ccc(Cl)cc1` [pyrimethamine], the mCherry in test [1] was found to be 104%. Besides, the percent effect in test [2] was -4.94%.
For the compound `O=c1[nH]c2ccccc2c(=O)n1CCCN1CCN(c2ccccc2)CC1` [pelanserin], in test [1], the mCherry worked out at 95.1%. In addition, in test [2], the percent effect is -1.78%.
The matching figures for `N/C=C1\Cc2ccccc2C1=O` [drinidene]: 82% and -5.86%.
In turn, `O=C(Oc1ccc2c(c1)CCCN2C(=O)C(Cl)Cl)c1ccco1` [quinfamide] came in with a mCherry in test [1] of 60.2%. The percent effect in test [2] was -0.455%.
`O=C(O)[C@@H]1C[C@H](CP(=O)(O)O)CCN1` (racemic) [selfotel]: the mCherry in test [1] stood at 116%. For the same compound, in test [2], the percent effect is -6.45%.
The matching figures for `CC[C@H](C)[C@H](NC(=O)[C@H](Cc1ccccc1)NC(=O)[C@H](C)NC(=O)[C@H](CC(=O)O)NC(=O)[C@H](CCCCN)NC(=O)[C@H](CO)NC(=O)[C@@H]1CCCN1C(=O)[C@@H]1CCC(=O)N1)C(=O)NCC(=O)N[C@@H](CC(C)C)C(=O)N[C@@H](CCSC)C(N)=O` [eledoisin]: 118% and 5.54%.
For `CO[C@H]1/C=C/O[C@@]2(C)Oc3c(C)c(O)c4c(O)c(c5c(nc6cc(C)ccn65)c4c3C2=O)NC(=O)/C(C)=C\C=C\[C@H](C)[C@H](O)[C@@H](C)[C@@H](O)[C@@H](C)[C@H](OC(C)=O)[C@@H]1C` [Xifaxan], in that order: 112% and -3.75%.
For `C[C@H](Cn1cnc2c(N)ncnc21)OCP(=O)(O)O` [tenofovir], in that order: 103% and -10.5%.
In test [1], `C1CCN2C[C@H]3C[C@H](CN4CCCC[C@@H]34)[C@H]2C1` yielded a mCherry of 84.5%. Also, the percent effect in test [2] worked out at 0.928%.
For `CCOC(=O)CN1CCN(C(=O)/C=C/c2cc(OC)c(OC)c(OC)c2)CC1` [cinepazet], in that order: 69.5% and -4.11%.
Consider `COc1ccc(/C=C/C(=O)OCCC(C)C)cc1` [amiloxate], for which the mCherry in test [1] came out at 91.2%. Further, the percent effect in test [2] is -5.09%.
The matching figures for `COc1ccc2c(c1)c(-c1ccccc1)nc(=O)n2CC1CC1` [ciproquazone]: 55.9% and -7.1%.
The matching figures for `COc1ccc2c(c1)N(C[C@H](C)CN(C)C)c1ccccc1S2` [Levoprome]: 135% and -2.63%.
The matching figures for `NC[C@H]1O[C@H](O[C@H]2[C@H](O)[C@@H](O[C@H]3O[C@H](CO)[C@@H](O)[C@H](N)[C@H]3O)[C@H](N)C[C@@H]2N)[C@H](N)[C@@H](O)[C@@H]1O`: 123% and -6.53%.
As to `CO[C@@]1(NC(=O)C2SC(=C(C(N)=O)C(=O)O)S2)C(=O)N2C(C(=O)O)=C(CSc3nnnn3C)CS[C@@H]21` (stereo not given in full), the mCherry in test [1] was found to be 82.5%. In addition, the percent effect in test [2] is -1.62%.
For `Nc1nc2[nH]cnc2c(=S)[nH]1`, in that order: 24.1% and -17.2%.
For `Nc1nccs1` [aminothiazole], in that order: 110% and -0.46%.
The matching figures for `CCOC(=O)C(C#N)=C(c1ccccc1)c1ccccc1` [etocrilene]: 96.3% and -5.84%.
In the case of `COc1ccc(CC(C)NCC(O)c2ccc(O)c(NC=O)c2)cc1` (stereo not given) [formoterol], in test [1], the mCherry was 91.7% and 79.7%. Besides, the percent effect in test [2] was -4.87% and -1.64%.
`Clc1cccc(Cl)c1NC1=NCCN1`: the mCherry in test [1] stood at 93.1%. In test [2], the percent effect is -1.02%.
For `CC(C)(C)NCC(O)COc1cccc2c1CCC(=O)N2` (stereo not given) [carteolol], in that order: 87.3% and -3.97%.
For `O=C1CCC2CCC(=O)N12` [rolziracetam], in that order: 93.9% and -1.68%.
The matching figures for `CCN(CC)CCc1nc(-c2ccccc2)no1`: 110% and -2.04%.
`Oc1c(I)cc(I)c2cccnc12` registered a mCherry in test [1] of 106%. In addition, the percent effect in test [2] is -0.98%.
For `CCN1CCN(C(=O)N[C@@H](C(=O)N[C@@H]2C(=O)N3C(C(=O)O)=C(CSc4nnnn4C)CS[C@H]23)c2ccc(O)cc2)C(=O)C1=O` [Cefoperazone acid], in that order: 58.1% and -3.65%.
For `CCCCCCCCCC(=O)N[C@@H](Cc1c[nH]c2ccccc12)C(=O)N[C@@H](CC(N)=O)C(=O)N[C@@H](CC(=O)O)C(=O)N[C@@H]1C(=O)NCC(=O)N[C@@H](CCCN)C(=O)N[C@@H](CC(=O)O)C(=O)N[C@H](C)C(=O)N[C@@H](CC(=O)O)C(=O)NCC(=O)N[C@H](CO)C(=O)N[C@@H]([C@H](C)CC(=O)O)C(=O)N[C@@H](CC(=O)c2ccccc2N)C(=O)O[C@@H]1C`, in that order: 94.4% and -7.05%.
